Measurements reported in the supplement of paper PMC10849652.
This is one part of the list.

Chains of the proteins cited; added tags and fusions are not shown. Lines headed by an entry give the natural chain unless they say otherwise; changes in a name come on top.
UniProt P17026: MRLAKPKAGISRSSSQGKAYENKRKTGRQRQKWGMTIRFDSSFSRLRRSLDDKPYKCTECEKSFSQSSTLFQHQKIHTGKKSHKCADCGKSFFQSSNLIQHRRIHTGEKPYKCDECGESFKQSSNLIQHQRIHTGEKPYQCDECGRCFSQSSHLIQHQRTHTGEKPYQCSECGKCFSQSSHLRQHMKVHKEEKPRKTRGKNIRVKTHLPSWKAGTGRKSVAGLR
UniProt P52739: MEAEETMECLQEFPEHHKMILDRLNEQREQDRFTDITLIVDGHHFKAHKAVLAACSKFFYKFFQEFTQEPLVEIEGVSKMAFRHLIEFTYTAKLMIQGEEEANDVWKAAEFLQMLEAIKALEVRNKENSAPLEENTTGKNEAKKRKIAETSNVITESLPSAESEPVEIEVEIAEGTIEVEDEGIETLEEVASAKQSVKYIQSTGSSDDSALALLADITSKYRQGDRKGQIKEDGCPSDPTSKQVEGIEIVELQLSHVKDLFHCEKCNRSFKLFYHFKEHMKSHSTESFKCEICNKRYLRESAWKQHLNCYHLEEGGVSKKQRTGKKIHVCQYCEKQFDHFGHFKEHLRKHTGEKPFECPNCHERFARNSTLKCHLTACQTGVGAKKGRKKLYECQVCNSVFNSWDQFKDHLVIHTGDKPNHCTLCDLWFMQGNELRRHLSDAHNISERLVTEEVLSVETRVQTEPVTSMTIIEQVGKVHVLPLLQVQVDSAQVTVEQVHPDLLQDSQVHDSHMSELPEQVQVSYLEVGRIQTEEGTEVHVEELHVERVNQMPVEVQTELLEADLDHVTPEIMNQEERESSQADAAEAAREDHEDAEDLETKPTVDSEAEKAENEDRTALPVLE
UniProt Q9H5H4: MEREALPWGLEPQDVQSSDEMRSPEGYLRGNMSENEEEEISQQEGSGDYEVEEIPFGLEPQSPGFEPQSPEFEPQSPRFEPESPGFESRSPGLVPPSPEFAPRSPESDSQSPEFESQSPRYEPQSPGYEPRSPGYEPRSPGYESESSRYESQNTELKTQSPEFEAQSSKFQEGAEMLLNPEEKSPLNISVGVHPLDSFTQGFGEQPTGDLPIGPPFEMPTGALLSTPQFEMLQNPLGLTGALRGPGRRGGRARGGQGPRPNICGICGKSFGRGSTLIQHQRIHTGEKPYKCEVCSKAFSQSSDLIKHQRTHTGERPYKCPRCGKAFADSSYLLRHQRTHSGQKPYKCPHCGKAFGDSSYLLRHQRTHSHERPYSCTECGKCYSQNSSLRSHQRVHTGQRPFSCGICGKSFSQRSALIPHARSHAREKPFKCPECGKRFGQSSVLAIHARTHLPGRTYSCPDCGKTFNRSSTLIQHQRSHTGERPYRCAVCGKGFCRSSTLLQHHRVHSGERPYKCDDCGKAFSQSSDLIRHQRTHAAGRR
UniProt Q5SVZ6: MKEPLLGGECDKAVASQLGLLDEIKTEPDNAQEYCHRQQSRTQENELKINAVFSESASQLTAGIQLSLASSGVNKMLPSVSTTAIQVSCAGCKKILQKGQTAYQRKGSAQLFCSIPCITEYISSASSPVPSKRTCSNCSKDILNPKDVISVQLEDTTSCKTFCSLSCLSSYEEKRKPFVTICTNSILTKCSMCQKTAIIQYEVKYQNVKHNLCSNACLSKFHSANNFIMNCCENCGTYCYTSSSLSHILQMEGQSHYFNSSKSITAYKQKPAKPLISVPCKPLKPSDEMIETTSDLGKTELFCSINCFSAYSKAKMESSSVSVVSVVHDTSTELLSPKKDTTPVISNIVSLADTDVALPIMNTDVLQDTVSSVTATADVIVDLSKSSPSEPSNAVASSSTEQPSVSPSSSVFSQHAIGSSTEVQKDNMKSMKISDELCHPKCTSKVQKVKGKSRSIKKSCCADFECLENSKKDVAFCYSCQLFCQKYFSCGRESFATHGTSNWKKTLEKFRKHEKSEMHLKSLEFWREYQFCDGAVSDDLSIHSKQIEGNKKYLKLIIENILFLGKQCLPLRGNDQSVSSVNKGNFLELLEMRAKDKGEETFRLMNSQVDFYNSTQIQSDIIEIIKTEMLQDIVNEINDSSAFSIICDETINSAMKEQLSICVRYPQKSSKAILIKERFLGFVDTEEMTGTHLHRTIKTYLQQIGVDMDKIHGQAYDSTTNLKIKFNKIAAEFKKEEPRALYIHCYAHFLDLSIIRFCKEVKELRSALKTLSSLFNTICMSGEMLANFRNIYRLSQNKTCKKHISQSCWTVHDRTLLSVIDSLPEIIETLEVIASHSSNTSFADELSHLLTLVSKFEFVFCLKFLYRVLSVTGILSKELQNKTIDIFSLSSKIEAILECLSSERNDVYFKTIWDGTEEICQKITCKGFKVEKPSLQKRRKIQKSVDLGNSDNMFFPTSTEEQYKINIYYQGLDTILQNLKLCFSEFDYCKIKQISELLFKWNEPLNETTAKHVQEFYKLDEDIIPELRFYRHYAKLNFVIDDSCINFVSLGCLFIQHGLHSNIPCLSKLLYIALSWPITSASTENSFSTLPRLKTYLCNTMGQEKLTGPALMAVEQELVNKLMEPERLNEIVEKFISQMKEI
UniProt O75362: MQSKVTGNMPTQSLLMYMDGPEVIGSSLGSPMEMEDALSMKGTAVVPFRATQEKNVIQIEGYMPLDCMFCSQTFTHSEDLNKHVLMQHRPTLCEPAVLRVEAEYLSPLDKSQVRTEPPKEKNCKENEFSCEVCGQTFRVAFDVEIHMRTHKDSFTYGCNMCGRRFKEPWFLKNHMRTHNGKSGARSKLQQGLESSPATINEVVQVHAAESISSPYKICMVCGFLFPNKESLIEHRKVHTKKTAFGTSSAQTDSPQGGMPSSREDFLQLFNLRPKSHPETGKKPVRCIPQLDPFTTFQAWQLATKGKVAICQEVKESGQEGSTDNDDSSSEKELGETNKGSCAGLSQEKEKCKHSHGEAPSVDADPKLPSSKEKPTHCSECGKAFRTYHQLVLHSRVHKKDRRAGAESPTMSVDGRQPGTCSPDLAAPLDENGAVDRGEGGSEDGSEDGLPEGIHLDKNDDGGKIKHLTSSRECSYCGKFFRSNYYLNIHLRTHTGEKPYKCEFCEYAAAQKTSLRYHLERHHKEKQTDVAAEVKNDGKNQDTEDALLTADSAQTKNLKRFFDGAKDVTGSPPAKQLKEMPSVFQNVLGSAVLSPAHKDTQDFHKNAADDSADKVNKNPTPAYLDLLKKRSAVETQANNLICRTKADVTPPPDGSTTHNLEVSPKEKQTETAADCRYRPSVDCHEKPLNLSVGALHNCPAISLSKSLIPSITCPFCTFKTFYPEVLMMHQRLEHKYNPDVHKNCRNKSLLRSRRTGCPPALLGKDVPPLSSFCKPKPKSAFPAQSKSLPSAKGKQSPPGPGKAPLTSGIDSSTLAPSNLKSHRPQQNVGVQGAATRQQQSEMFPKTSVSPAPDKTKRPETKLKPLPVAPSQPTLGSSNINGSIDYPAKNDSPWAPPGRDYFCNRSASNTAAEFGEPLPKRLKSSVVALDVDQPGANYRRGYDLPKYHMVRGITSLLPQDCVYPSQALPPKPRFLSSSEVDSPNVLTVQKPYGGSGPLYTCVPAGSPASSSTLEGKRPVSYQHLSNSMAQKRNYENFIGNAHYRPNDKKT
UniProt Q9NWK9: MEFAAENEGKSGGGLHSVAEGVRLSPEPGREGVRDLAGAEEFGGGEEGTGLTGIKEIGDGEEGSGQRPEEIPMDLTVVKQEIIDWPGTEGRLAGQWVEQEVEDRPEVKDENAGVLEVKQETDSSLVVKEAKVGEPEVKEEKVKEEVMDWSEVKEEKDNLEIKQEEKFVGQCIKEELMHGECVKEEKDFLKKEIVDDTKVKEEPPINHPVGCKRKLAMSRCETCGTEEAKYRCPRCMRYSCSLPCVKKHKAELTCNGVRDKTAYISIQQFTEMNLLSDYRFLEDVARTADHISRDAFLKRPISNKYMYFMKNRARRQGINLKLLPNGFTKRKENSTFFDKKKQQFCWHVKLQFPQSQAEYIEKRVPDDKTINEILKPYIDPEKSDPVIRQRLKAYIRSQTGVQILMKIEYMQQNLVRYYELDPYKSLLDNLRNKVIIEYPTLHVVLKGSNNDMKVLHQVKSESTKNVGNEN
UniProt Q969S3: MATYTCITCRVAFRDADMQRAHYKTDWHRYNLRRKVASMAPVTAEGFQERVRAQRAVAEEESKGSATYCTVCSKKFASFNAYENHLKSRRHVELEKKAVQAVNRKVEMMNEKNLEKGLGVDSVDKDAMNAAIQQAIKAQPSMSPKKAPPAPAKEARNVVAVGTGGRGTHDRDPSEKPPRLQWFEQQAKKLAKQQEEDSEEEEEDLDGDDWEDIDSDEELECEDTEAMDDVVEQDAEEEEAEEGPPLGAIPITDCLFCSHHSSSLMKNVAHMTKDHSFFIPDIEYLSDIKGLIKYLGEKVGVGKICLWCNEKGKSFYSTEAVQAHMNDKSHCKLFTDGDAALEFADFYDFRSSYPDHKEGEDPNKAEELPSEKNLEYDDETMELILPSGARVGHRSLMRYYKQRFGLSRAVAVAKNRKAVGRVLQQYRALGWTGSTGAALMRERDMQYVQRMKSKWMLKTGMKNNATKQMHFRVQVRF
UniProt Q8NAF0: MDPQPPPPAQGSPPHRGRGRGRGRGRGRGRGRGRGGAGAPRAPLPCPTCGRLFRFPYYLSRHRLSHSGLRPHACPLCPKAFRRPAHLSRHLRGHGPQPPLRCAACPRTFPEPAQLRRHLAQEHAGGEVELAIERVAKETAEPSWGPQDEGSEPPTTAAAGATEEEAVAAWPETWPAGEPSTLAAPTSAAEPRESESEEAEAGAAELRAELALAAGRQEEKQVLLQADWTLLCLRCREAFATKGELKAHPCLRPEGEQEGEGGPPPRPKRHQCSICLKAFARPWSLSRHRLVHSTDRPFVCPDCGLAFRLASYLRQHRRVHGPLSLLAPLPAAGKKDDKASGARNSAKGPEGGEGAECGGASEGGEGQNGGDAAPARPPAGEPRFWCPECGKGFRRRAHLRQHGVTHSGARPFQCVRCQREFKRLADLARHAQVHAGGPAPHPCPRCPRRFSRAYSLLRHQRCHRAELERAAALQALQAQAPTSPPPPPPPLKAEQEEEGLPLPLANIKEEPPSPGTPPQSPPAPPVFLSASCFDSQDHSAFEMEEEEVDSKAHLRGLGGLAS
UniProt Q9UHR6: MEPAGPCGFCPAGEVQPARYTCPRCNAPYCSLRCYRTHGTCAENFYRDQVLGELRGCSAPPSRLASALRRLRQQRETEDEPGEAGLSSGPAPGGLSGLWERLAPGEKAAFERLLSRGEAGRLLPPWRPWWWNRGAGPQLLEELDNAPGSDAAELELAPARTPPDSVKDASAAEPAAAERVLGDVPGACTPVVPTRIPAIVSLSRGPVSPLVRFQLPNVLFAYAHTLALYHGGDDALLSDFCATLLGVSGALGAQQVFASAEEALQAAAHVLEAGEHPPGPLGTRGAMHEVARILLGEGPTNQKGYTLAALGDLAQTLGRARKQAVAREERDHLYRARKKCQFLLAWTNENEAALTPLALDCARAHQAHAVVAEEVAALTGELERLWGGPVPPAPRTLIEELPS
UniProt Q96NB3: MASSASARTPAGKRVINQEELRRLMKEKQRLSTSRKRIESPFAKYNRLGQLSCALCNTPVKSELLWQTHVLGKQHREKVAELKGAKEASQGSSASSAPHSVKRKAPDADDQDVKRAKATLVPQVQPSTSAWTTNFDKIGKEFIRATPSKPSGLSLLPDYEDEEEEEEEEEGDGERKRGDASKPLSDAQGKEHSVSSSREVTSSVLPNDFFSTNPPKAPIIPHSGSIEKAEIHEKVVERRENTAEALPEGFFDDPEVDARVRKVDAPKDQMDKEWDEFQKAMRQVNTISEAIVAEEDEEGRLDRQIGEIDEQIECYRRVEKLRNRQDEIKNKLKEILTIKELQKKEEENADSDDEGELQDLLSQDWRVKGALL
UniProt Q96NC0: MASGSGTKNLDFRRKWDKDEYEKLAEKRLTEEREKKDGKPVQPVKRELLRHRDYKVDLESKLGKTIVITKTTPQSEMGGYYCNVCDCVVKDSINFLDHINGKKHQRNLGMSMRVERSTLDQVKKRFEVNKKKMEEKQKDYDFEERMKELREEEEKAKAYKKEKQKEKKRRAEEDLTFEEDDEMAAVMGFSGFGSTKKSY
UniProt O75312: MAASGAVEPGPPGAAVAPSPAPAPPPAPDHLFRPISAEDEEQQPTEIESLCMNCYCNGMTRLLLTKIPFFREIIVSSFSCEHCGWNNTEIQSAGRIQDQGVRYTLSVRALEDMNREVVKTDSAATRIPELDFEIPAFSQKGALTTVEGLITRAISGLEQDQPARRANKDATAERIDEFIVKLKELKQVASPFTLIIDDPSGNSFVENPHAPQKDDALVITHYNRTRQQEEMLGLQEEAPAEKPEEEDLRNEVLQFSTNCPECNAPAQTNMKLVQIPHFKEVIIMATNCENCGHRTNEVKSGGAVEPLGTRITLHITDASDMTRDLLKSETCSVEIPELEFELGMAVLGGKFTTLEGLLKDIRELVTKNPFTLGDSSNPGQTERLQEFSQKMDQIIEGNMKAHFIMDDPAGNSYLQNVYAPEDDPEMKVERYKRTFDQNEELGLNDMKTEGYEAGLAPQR

Assays:
Assay in all cases: log2 fold change, soluble protein after heating vs DMSO (PISA); higher = thermal stabilisation; K562 lysate, 10 uM; active = over 0.2 and 3.5 SD of the protein, either way, in both replicates (recomputed)
[1] = compound: CN1CC[C@H](c2c(O)cc(O)c3c(=O)cc(-c4ccccc4Cl)oc23)[C@H](O)C1 [alvocidib]
Method in brief: (§1)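 Following dounce homogenisation of K562 pellets in PBS pH 7.4 with 1 mM MgCl2, crude extract at 1 mg/mL protein was incubated for 30 min with 10 μM compound. Aliquots were then heated for 3 min over 48°C-58°C and pooled, NP-40 was added to 0.5% at 4°C, and soluble protein was recovered as the supernatant at 21,000xg for 90 min. Channel-sum-equalised TMTpro 16plex LC-MS/MS quantified this protein. Each value, from duplicates, is a log-two fold change in thermal stability relative to solvent controls.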

[2] = compound: CN1CCc2c(c3ccccc3n2Cc2ccc(C(=O)NO)cc2)C1 [Tubastatin A]
Method in brief: as §1

[3] = compound: CNC(=O)C1=CC=CC=C1NC2=NC(=NC=C2Cl)NC3=C(C=C(C=C3)N4CCOCC4)OC
Method in brief: as §1

[4] = compound: CNC(=O)c1ccc(Nc2ncc(C(F)(F)F)c(NCc3nccnc3N(C)S(C)(=O)=O)n2)cc1 [defactinib]
Method in brief: as §1

[5] = compound: CNc1nc(-c2ccc3c(N)n[nH]c3c2)cc(N2C[C@@H](C(=O)NC3CCCCC3)CC[C@H]2C)n1
Method in brief: as §1

[6] = compound: COC(=O)N[C@@H](C)CNc1nccc(-c2cn(C(C)C)nc2-c2cc(Cl)cc(NS(C)(=O)=O)c2F)n1 [encorafenib]
Method in brief: as §1

[7] = compound: COC(=O)[C@H](CCSC)NC(=O)C1=C(C=C(C=C1)NC[C@H](CS)N)C2=CC=CC=C2
Method in brief: as §1

[8] = compound: COc1cc(Nc2ncc3c(n2)-c2ccc(Cl)cc2C(c2c(F)cccc2OC)=NC3)ccc1C(=O)O [alisertib]
Method in brief: as §1

[9] = compound: COc1cc2nc(-c3cc(F)ccc3O)nc(N[C@@H]3CNC[C@H]3C(C)(C)O)c2cc1OC
Method in brief: as §1

[10] = compound: COc1cc2ncnc(Nc3ccc(F)c(Cl)c3)c2cc1OCCCN1CCOCC1 [gefitinib]
Method in brief: as §1

[11] = compound: CS(=O)(=O)CCNCc1ccc(-c2ccc3ncnc(Nc4ccc(OCc5cccc(F)c5)c(Cl)c4)c3c2)o1 [lapatinib]
Method in brief: as §1

[12] = compound: CS(=O)(=O)N1CCN(Cc2cc3nc(-c4cccc5[nH]ncc45)nc(N4CCOCC4)c3s2)CC1 [pictilisib]
Method in brief: as §1

[13] = compound: C[C@@H](Oc1cc(-c2cnn(C3CCNCC3)c2)cnc1N)c1c(Cl)ccc(F)c1Cl [crizotinib]
Method in brief: as §1

[14] = compound: C[C@H](C1=CC=C(C=C1)C(=O)NC2=C3C=CNC3=NC=C2)N
Method in brief: as §1

[15] = compound: C[C@H](Nc1ncnc2nc[nH]c12)c1cc2cccc(Cl)c2c(=O)n1-c1ccccc1 [duvelisib]
Method in brief: as §1

[16] = compound: Cc1cc(Nc2cc(CN3CCOCC3)c3nc(C)c(Cc4ccc(Cl)cc4F)n3n2)n[nH]1 [gandotinib]
Method in brief: as §1

[17] = compound: Cc1cc(Nc2cc(N3CCN(C)CC3)nc(Sc3ccc(NC(=O)C4CC4)cc3)n2)n[nH]1 [tozasertib]
Method in brief: as §1

[18] = compound: Cc1ccc(-n2nc(C(C)(C)C)cc2NC(=O)Nc2ccc(OCCN3CCOCC3)c3ccccc23)cc1 [doramapimod]
Method in brief: as §1

[19] = compound: Cc1ccc(NC(=O)c2ccc(CN3CC[C@H](N(C)C)C3)c(C(F)(F)F)c2)cc1Nc1nccc(-c2cncnc2)n1 [bafetinib]
Method in brief: as §1

[20] = compound: Cc1cccc(CC(=O)N2CCc3c2ccc(-c2cn(C)c4ncnc(N)c24)c3F)n1
Method in brief: as §1

Measured: log2 fold change

ZMYM2 (UniProt Q9UBW7)
inactive: [1] 0.076 | [2] -0.155 | [3] 0.003 | [4] 0.121 | [5] -0.021 | [6] -0.214 | [7] -0.018 | [8] -0.077 | [9] 0.087 | [10] 0.06 | [11] 0.028 | [12] -0.147 | [13] -0.079 | [14] 0.098 | [15] 0.028 | [16] -0.329 | [17] 0.046 | [18] 0.041 | [19] -0.024 | [20] -0.084

ZNF22 (UniProt P17026)
inactive: [1] 0.131 | [2] 0.1 | [3] -0.019 | [4] 0.183 | [5] -0.076 | [6] 0.064 | [7] -0.112 | [8] -0.088 | [9] -0.065 | [10] 0.011 | [11] -0.025 | [12] -0.016 | [13] 0.003 | [14] 0.087 | [15] -0.109 | [16] -0.001 | [17] 0.075 | [18] -0.043 | [19] -0.051 | [20] -0.032

ZNF131 (UniProt P52739)
inactive: [1] 0.004 | [2] 0.004 | [3] -0.008 | [4] -0.004 | [5] 0.009 | [6] 0.054 | [7] 0.002 | [8] 0.059 | [9] 0.02 | [10] -0.034 | [11] 0.122 | [12] 0.042 | [13] 0 | [14] -0.018 | [15] 0.015 | [16] -0.045 | [17] -0.033 | [18] -0.046 | [19] 0.014 | [20] 0.045

ZNF768 (UniProt Q9H5H4)
inactive: [1] -0.13 | [2] -0.03 | [3] -0.007 | [4] 0.068 | [5] -0.019 | [6] -0.021 | [7] 0 | [8] -0.01 | [9] -0.016 | [10] 0.028 | [11] -0.029 | [12] 0.016 | [13] 0.002 | [14] -0.002 | [15] 0.022 | [16] 0.067 | [17] -0.032 | [18] 0.143 | [19] -0.065 | [20] -0.024

ZMYM1 (UniProt Q5SVZ6)
inactive: [1] -0.162 | [2] -0.098 | [3] 0.071 | [4] -0.035 | [5] 0.067 | [6] 0.063 | [7] -0.038 | [8] -0.008 | [9] 0.03 | [10] 0.009 | [11] 0.101 | [12] -0.037 | [13] -0.008 | [15] -0.04 | [16] 0.226 | [17] -0.021 | [18] 0 | [19] -0.097
active: [14] -0.25 | [20] 0.284

ZNF143 (UniProt P52747)
inactive: [1] 0.007 | [2] 0.037 | [3] -0.039 | [4] 0.011 | [5] 0.004 | [6] 0.041 | [7] 0.009 | [8] -0.023 | [9] -0.016 | [10] 0.035 | [11] 0.065 | [12] 0.004 | [13] 0.028 | [14] -0.048 | [15] 0.005 | [16] 0.029 | [17] -0.027 | [18] -0.012 | [19] 0.01 | [20] 0.023

ZNF217 (UniProt O75362)
inactive: [1] -0.144 | [2] -0.076 | [3] 0.009 | [4] -0.045 | [5] -0.004 | [6] -0.06 | [7] -0.037 | [8] 0.032 | [9] 0.219 | [10] -0.013 | [11] -0.02 | [12] 0.059 | [13] -0.025 | [14] -0.045 | [15] -0.011 | [16] -0.009 | [17] 0.044 | [18] 0.004 | [19] 0.037 | [20] 0.052

ZNF609 (UniProt O15014)
inactive: [1] -0.028 | [2] -0.044 | [3] 0.02 | [4] -0.026 | [5] 0.074 | [6] 0.002 | [7] 0.013 | [8] -0.01 | [9] 0.018 | [10] -0.002 | [11] 0.023 | [12] -0.054 | [13] 0.026 | [14] -0.028 | [15] -0.042 | [16] 0.16 | [17] 0.024 | [18] -0.064 | [19] -0.111 | [20] 0.187

Looked up one by one from the entries so far (two):
ZNF768 (UniProt Q9H5H4)
inactive: [1] -0.13 | [2] -0.03 | [3] -0.007 | [4] 0.068 | [5] -0.019 | [6] -0.021 | [7] 0 | [8] -0.01 | [9] -0.016 | [10] 0.028 | [11] -0.029 | [12] 0.016 | [13] 0.002 | [14] -0.002 | [15] 0.022 | [16] 0.067 | [17] -0.032 | [18] 0.143 | [19] -0.065 | [20] -0.024

ZMYM2 (UniProt Q9UBW7)
inactive: [1] 0.076 | [2] -0.155 | [3] 0.003 | [4] 0.121 | [5] -0.021 | [6] -0.214 | [7] -0.018 | [8] -0.077 | [9] 0.087 | [10] 0.06 | [11] 0.028 | [12] -0.147 | [13] -0.079 | [14] 0.098 | [15] 0.028 | [16] -0.329 | [17] 0.046 | [18] 0.041 | [19] -0.024 | [20] -0.084

The list goes on:

ZNHIT6 (UniProt Q9NWK9)
inactive: [1] 0.004 | [2] -0.046 | [3] 0.034 | [4] -0.04 | [5] 0.086 | [6] 0.037 | [7] 0.118 | [8] -0.021 | [9] -0.022 | [10] 0.008 | [11] 0.042 | [12] 0.006 | [13] -0.006 | [14] 0.061 | [15] -0.002 | [16] 0.008 | [17] -0.029 | [18] -0.024 | [19] -0.026 | [20] -0.004

ZNF622 (UniProt Q969S3)
inactive: [1] 0.043 | [2] 0.028 | [3] 0.009 | [4] -0.015 | [5] -0.033 | [6] 0.004 | [7] -0.003 | [8] -0.017 | [9] -0.009 | [10] -0.011 | [11] -0.005 | [12] 0.025 | [13] -0.011 | [14] -0.048 | [15] 0.005 | [16] -0.013 | [17] 0.009 | [18] -0.011 | [19] -0.078 | [20] 0.038

ZNF579 (UniProt Q8NAF0)
inactive: [1] -0.044 | [2] 0.004 | [3] 0.022 | [4] 0.202 | [5] 0.299 | [6] 0.051 | [7] 0.104 | [8] -0.046 | [9] 0.065 | [10] -0.218 | [11] -0.027 | [12] -0.051 | [13] -0.036 | [14] 0 | [15] 0.169 | [16] 0.041 | [17] -0.006 | [18] 0.043 | [19] -0.084 | [20] 0.054

ZNHIT2 (UniProt Q9UHR6)
inactive: [1] -0.002 | [2] -0.108 | [3] -0.067 | [4] -0.019 | [5] -0.039 | [6] 0.02 | [7] 0.067 | [8] 0.051 | [9] 0.171 | [10] 0.147 | [11] 0.068 | [12] -0.234 | [13] -0.088 | [14] 0.024 | [15] -0.047 | [16] 0.254 | [17] 0.006 | [18] 0.019 | [19] -0.101 | [20] -0.07

ZRANB2 (UniProt O95218)
inactive: [1] 0.007 | [2] 0.056 | [3] 0.019 | [4] 0.019 | [5] 0.017 | [6] 0.029 | [7] -0.033 | [8] 0.015 | [9] -0.01 | [10] -0.068 | [11] -0.004 | [12] 0.01 | [13] -0.031 | [14] 0.072 | [15] 0.031 | [16] -0.01 | [17] -0.012 | [18] 0.059 | [19] 0.031 | [20] -0.004

ZNF830 (UniProt Q96NB3)
inactive: [1] -0.012 | [2] 0.071 | [3] 0.039 | [4] 0.047 | [5] 0.046 | [6] 0.008 | [7] -0.04 | [8] -0.063 | [9] -0.013 | [10] -0.017 | [11] 0.001 | [12] 0.009 | [13] 0.013 | [14] -0.042 | [15] 0.001 | [16] 0.051 | [17] -0.041 | [18] 0.017 | [19] -0.021 | [20] -0.086

ZMAT2 (UniProt Q96NC0)
inactive: [1] -0.001 | [2] 0.053 | [3] -0.012 | [4] -0.001 | [5] -0.037 | [6] -0.035 | [7] -0.014 | [8] 0.009 | [9] 0.001 | [10] 0.013 | [11] 0.006 | [12] 0.003 | [13] -0.005 | [14] 0.02 | [15] -0.034 | [16] -0.035 | [17] -0.028 | [18] 0.042 | [19] 0.053 | [20] -0.043

ZPR1 (UniProt O75312)
inactive: [1] -0.004 | [2] 0.036 | [3] -0.019 | [4] -0.023 | [5] -0.006 | [6] -0.023 | [7] -0.018 | [8] 0.009 | [9] 0.004 | [10] 0.013 | [11] -0.007 | [12] 0.001 | [13] 0.04 | [14] -0.008 | [15] 0.013 | [16] -0.003 | [17] 0.021 | [18] 0.002 | [19] 0.021 | [20] -0.015
